{
  "sequences": {"note": "Protein sequences, listed by entry. Tags and fused reporters are not part of them.", "UniProt P10275, whole entry": "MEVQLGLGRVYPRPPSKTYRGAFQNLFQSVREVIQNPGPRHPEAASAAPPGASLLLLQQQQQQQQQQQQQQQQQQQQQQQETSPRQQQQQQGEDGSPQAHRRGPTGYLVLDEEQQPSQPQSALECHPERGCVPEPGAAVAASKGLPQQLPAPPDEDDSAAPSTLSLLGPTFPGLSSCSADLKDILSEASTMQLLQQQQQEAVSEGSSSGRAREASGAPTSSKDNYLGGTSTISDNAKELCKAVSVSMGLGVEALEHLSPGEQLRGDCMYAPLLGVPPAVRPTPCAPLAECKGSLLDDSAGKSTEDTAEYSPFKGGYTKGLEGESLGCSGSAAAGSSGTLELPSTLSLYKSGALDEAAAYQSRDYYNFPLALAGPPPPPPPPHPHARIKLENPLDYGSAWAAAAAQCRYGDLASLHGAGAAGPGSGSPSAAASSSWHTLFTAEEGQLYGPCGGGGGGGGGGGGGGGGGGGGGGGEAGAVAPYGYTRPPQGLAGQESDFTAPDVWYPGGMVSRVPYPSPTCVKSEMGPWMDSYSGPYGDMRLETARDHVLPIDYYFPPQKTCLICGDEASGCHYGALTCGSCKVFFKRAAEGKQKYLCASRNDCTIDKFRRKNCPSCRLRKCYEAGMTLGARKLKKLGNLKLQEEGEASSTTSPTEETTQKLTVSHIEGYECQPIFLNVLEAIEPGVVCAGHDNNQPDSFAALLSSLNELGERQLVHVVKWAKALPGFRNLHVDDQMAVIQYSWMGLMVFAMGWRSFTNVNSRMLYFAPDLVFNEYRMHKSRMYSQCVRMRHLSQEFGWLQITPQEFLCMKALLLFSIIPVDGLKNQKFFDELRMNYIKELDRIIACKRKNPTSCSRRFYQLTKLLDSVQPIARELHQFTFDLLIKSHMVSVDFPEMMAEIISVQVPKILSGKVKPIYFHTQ"},
  "source": "patent US8168667B2",
  "about": "(Galapagos NV, priority 2006, dated 2012)",
  "target": "human androgen receptor (hAR) (Homo sapiens, UniProt P10275)",
  "test": "Functional response test: hAR transactivation (luciferase reporter) in HALP2 cells",
  "format": "cell-based",
  "note": "The match of structure and compound is tentative.",
  "data": [
    {"compound": "O=C1C(c2ccc(O)cc2)N(CCCCO)C(=O)N1c1ccc(F)c(Cl)c1", "note": "(centres unmarked)", "values": [
      {"measurement": "KSchild (nM) potency", "result": 244.95, "unit": "nM"},
      {"measurement": "EC50", "setting": "read-out: EC50 (nM) Kd, agonism, HALP2 cells (HeLa, hAR + ARE-luciferase), 20 hours at 37° C.", "result": 245, "unit": "nM"}
    ]}
  ]
}
